{"sequences": {"note": "Protein sequences, listed by entry. Tags and fused reporters are not part of them. Lines headed by an entry give the natural chain unless they say otherwise; changes in a name come on top.", "UniProt P05981": "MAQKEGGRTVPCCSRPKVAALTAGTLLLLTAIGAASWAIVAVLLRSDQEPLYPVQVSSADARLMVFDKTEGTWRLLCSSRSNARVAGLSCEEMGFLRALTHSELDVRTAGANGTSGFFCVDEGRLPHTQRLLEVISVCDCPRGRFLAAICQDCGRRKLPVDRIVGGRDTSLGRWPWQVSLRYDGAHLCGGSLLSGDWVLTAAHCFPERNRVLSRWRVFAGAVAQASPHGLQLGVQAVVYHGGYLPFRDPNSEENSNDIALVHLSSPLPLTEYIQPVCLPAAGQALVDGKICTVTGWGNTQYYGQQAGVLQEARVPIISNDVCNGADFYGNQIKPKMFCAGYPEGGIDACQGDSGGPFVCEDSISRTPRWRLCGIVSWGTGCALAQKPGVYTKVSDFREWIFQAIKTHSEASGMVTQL"}, "source": "patent US20230236192A1", "key": {"[1]": {"biological_target": "activated recombinant hepsin (SEQ ID NO: 44 after activation with thrombin) (human) (UniProt P05981)", "test": "sandwich ELISA"}, "[2]": {"biological_target": "His-tagged recombinant hepsin protein having an amino acid sequence of SEQ ID NO: 43 (human) (UniProt P05981)", "test": "sandwich ELISA (double-determinant immunoassay)"}}, "note": "These are yes or no findings as the source states them, for the method shown. Some results given as binding are weak or reduced against the parent protein; the word gives no strength."}
{"binder": "mAb 5B8 (antibody, V domains shown) VH: DVQLVESGGDLVQPGESRKLSCAASGFTFSSFGMHWVRQAPEKGLEWVAYISSGSSAIYYADTVKGRFTISRDNPKNTLFLHMTSLRSEDTAIYYCAGSNWDYFDYWGQGTTLTVSS VL: DIVMSQSPSSLAVSAGEKVTMSCKSSQSLLNSRIRKNYLAWYQQKPGQSPKLLIYWASTRESGVPDRFTGSGSGTDFTLTISSVQAEDLAVYYCKQSYNLWTFGGGTKLEIK", "values": [{"measurement": "binding", "setting": "[1]", "result": "binds"}, {"measurement": "binding", "setting": "[2]", "result": "binds"}]}
